In article PMC5570423, “Structural characterisation of TNRC6A nuclear localisation signal in complex with importin-alpha” (PLoS ONE, 2017) one finds binding data, which are given here for two substances.

Protein sequences, listed by entry. Tags and fused reporters are not part of them.
UniProt P70168: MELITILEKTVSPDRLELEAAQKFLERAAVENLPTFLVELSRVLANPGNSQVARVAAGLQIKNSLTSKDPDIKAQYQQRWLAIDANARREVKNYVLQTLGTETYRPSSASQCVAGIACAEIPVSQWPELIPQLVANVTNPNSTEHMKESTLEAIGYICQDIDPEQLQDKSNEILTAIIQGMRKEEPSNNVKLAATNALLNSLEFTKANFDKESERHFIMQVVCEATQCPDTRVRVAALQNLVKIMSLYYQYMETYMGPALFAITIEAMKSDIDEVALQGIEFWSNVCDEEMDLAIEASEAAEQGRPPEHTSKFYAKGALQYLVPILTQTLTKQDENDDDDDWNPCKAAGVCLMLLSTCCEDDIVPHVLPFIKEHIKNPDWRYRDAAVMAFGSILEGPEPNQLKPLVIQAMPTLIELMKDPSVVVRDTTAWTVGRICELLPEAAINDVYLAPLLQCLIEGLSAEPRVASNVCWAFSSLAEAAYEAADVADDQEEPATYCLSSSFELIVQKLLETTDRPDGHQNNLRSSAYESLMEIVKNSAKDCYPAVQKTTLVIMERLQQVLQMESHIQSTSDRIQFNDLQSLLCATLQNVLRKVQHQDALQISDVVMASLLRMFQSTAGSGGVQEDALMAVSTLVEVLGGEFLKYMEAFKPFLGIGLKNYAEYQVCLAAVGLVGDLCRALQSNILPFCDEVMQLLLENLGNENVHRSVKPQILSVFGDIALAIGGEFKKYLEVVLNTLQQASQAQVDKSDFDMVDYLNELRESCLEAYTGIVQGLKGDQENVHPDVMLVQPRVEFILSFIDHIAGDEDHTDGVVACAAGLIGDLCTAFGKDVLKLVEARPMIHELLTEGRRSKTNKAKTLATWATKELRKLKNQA
UniProt Q14974: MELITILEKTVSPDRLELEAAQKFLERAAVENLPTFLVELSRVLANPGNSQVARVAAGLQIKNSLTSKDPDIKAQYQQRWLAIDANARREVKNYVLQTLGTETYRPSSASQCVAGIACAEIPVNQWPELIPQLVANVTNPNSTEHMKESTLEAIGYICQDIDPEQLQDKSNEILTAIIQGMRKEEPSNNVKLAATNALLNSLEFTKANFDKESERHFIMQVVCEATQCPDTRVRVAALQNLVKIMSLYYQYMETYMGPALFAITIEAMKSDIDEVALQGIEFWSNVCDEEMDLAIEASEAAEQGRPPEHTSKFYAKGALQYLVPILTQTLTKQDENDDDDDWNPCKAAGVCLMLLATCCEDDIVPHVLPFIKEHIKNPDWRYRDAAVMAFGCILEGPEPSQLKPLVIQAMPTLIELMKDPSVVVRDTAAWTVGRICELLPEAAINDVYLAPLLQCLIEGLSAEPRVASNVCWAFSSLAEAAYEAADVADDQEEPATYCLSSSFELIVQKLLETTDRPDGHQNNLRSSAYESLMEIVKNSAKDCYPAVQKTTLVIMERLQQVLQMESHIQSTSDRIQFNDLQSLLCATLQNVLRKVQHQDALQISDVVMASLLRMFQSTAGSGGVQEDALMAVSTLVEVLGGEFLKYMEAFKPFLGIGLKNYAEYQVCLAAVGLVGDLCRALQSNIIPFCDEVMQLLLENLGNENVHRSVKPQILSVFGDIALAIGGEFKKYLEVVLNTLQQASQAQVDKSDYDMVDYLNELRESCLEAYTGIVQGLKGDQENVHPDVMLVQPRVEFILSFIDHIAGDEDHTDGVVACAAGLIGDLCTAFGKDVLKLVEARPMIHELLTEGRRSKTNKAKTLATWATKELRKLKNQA

The assay concerns the target T1, GST-TNRC6A cNLS (residues 1164–1172 of mouse TNRC6A, corresponding to residues 1179–1187 of human TNRC6A isoform 1) (mouse).
T1 sequence: SGKKRRRER
Put plainly: pull-down; GST pull-down: glutathione resin with 100 μg purified GST-cNLS or GST and 250 μg ImpA or 500 μg ImpB, 4°C, 1 hr; 20 mM Tris pH 7.5, […] NaCl, 1 mM DTT; eluted with 10 mM glutathione; SDS-PAGE; both purified.

Results are given in words; binding and its absence hold for the method and conditions named. Sequences can lack the tags named with a protein.

On to “Mouse importin-β (His-tagged) (from UniProt P70168 1-876)”, for which the binding entry is “no binding (tested: 500 μg of ImpB with 100 μg GST-cNLS)”. As to “Human importin-β (His-tagged) (from UniProt Q14974 1-876)”, the binding result is on record as “no binding (tested: 500 μg of ImpB with 100 μg GST-cNLS)”.
